This note sets out measurements from patent US20250084172A1.

Assay [1] addresses T1, human ULBP6 displayed on M13 phage (ULBP6-HA-pIII) (human) (UniProt Q5VY80).
T1 sequence: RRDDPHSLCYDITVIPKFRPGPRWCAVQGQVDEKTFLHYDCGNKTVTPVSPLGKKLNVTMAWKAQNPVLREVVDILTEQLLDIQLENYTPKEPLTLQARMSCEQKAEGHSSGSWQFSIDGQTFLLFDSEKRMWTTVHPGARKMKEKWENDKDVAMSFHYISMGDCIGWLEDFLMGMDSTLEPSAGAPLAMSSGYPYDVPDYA
The experiment in a line: phage ELISA: plate coated with the antibody, ULBP6 phage titrated in 3-fold steps from 1.0 O.D./mL, HRP anti-M13 detection, O.D. 450. A general note: In an ELISA, binding on a coated surface is turned into a signal by an enzyme label.

Assay [2] has as its target T1, human ULBP6 displayed on M13 phage (ULBP6-HA-pIII) (human). The experiment in a line: phage ELISA, antibody coated, anti-M13-HRP detection.
The target of assay [3] is T2, human ULBP6 (haplotype not stated) (human) (UniProt Q5VY80).
T2 sequence (looked up): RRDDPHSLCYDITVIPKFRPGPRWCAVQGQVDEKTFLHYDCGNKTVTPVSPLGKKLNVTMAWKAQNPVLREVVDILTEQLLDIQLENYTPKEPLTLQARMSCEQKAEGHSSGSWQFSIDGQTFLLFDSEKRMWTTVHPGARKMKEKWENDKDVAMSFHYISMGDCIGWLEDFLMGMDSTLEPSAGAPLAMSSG
Briefly: tool antibody properties (FIG. 3A and FIG. 3B).

For assay [4], the target named is T2, human ULBP6 (haplotype not stated) (human). The experiment in a line: description of the control antibody.
The target is the same in assay [5]. Briefly: summary of the screening.

These are yes or no findings as the source states them, for the method shown. Some results given as binding are weak or reduced against the parent protein; the word gives no strength. For part of these data: Sequences can lack the tags named with a protein.

B1: humanized 7B3 (h7B3), Fc version not stated (antibody, V domains shown)
VH: EVQLVESGGGLVQPGGSLRLSCAASGFTFSTYGFHWVRQAPGKGLEWVAYISSNSGTIDYADTVKGRFTISRDNAKNSLYLQMNSLRAEDTAVYYCARQGYGFDNWGQGTTVTVSS
VL: DIQLTQSPSSLSASVGDRVTITCSASSRVSYMNWYQQKPGKSPKIWVYGISNLASGVPSRFSGSGSGTDFTFTISSLQPEDIATYYCQQRSSHPLTFGGGTKVEIK
On to B1, for which the binding result in assay [1] and in assay [2] was “binds” throughout.

B2: humanized 8E11 (h8E11), Fc version not stated (antibody, V domains shown)
VH: EVQLVESGGGLVQPGGSLRLSCAASGFTFRTYGMHWVRQAPGKGLEWVAYISSGSGTIDYADTVKGRFTISRDNAKNSLYLQMNSLRAEDTAVYYCTRQTGAMDYWGQGTLVTVSS
VL: EIVLTQSPATLSLSPGERATLSCSASSSVSYMNWYQQKPGQSPRLWIYGISNLASGVPARFSGSGSGTDFTLTISSLEPEDFAVYYCQQRSSHPLTFGGGTKVEIK
As for B2, the binding result in assay [1] and in assay [2] was “binds” in each case.

B3: Humanized 7B3 (h7B3) (E-) (antibody, human IgG1, kappa, N297G, V domains shown)
VH: EVQLVESGGGLVQPGGSLRLSCAASGFTFSTYGFHWVRQAPGKGLEWVAYISSNSGTIDYADTVKGRFTISRDNAKNSLYLQMNSLRAEDTAVYYCARQGYGFDNWGQGTTVTVSS
VL: DIQLTQSPSSLSASVGDRVTITCSASSRVSYMNWYQQKPGKSPKIWVYGISNLASGVPSRFSGSGSGTDFTFTISSLQPEDIATYYCQQRSSHPLTFGGGTKVEIKR
As to B3, the binding entry in assay [3] is on record as “binds”.

B4: humanized 8E8 (h8E8), Fc version not stated (antibody, V domains shown)
VH: QVQLVQSGAEVKKPGSSVKVSCKASGYTFTTYGITWVRQAPGQGLEWIGEIYPGTATSYSNERFKGRATLTADRSTSTAYMELSSLRSEDTAVYFCARRGTYGTYEWYFDVWGRGTLVTVSS
VL: DIQMTQSPSSLSASVGDRVTITCRASENIYSHLAWYQQKPGKSPKLLVYAATNLADGVPSRFSGSGSGTDYTLTISSLQPEDFATYYCQHFWGTPWTFGGGTKVEIK
For the molecule B4, the binding result in assay [4], in assay [2] and in assay [5] was “binds” each time.

B5: humanized 1D4 (h1D4), Fc version not stated (antibody, V domains shown)
VH: EIQLVQSGSELKKPGASVKVSCKASGYTFTEYPIHWVRQAPGQGFEWMGMIYTDTGEPTHAEEFKGRFVFSLDTSVSTAYLQISSLKAEDTAVYFCVRWYDGSSYIMDYWGQGTTVTVSS
VL: DIQMTQSPSSLSASVGDRVTITCKASQDINSYLSWFQQKPGKSPKTLIYRANRLVDGVPSRFSGSGSGQDYTFTISSLQPEDIATYYCLQYDEFPLTFGGGTKVEIK
Take B5: the binding entry in assay [1] and in assay [2] was “binds” in each case.

B6: humanized 6E1 (h6E1), Fc version not stated (antibody, V domains shown)
VH: EVQLVQSGAEVKKPGASVKVSCKASGYTFTNYWMHWMRQAPGQGLEWLGRIHPSDSDTNYNQKFKGRATLTVDKSISTAYMELSRLRSDDTAVYYCAIEGTGKGYFDVWGRGTLVTVSS
VL: DIQMTQSPSSLSASVGDRVTITCKASQDIYSYLSWFQQKPGKSPKTLIYRANRLVDGVPSRFSGSGSGQDFTLTISSLQPEDFATYYCLHYDEFPLTFGGGTKVEIK
Regarding B6, the binding result in assay [1] and in assay [2] was “binds” in each case.
